“And” between values parts separate entries of the source, which are not always exact repeats. Identical values can stand only once.
Experiments:
[1] = general procedure: Fmoc solid-phase peptide synthesis; Fmoc-Thr(tBu)-ol-Trt-PS; DIC/OxymaPure; settings: whole synthesis, HPLC-MS, scale of the general procedure 800 mg resin; run 1
[2] = general procedure: Fmoc solid-phase peptide synthesis; Fmoc-Ile-Trt-PS resin (loading 1.1 mmol/g); DIC/OxymaPure; settings: whole synthesis, HPLC-MS, scale of the general procedure 800 mg resin; run 2
[3] = general procedure: Fmoc solid-phase peptide synthesis; Fmoc-Ile-Trt-PS; DIC/OxymaPure; settings: whole synthesis, HPLC-MS, scale of the general procedure 800 mg resin

Substance	crude HPLC purity [1]	crude HPLC purity [2]	crude HPLC purity [3]
H-D-Phe-Cys-Phe-D-Trp-Lys-Thr-Cys-Thr-ol	83.2% and 68.3% and 76.8%	99.3% and 98.8% and 99.0%	–
H-AKDGYI-OH	–	–	97.4%
